PubChem BioAssay AID743454, Peter MacCallum Cancer Centre, 2014
The deposit covers about 18,000 reagents; shown is a part drawn at random. 450 of all reagents (2.5%) were called active. 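Single biological run; no consistent viability z cut-off exists, so the class columns, not z-scores, define the calls.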 Unmarked entries are inactive. No sequences are given here.

- Aim: 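Knock-downs lowering viability or raising caspase 3/7 activity in vorinostat-treated resistant cells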 (primary screen)
- Cells: human HCT116-VR colon cancer cells, selected for vorinostat resistance
- Reagents: siRNA pool against human genes, 40 nM siRNA pool
- Time to read-out: vorinostat for 24 h, read-out about 72 h after transfection
- Treatment: vorinostat at 2.5 µM final
- Read-out: 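Cell viability by CellTiter-Fluor and caspase 3/7 activity by luminescence, each scaled to mock wells per plate, duplicates averaged, then robust z-scored over all plates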
- Reading the numbers: viability robust z-score: higher = more viable cells than screen typical; caspase robust z-score: higher = more caspase 3/7 activity than screen typical
- Call rule: 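Hits are knock-downs in viability class RV1/RV2 or caspase class CA1/CA2, excluding ones that killed cells in the no-drug cell-count arm; hits then retested with single siRNAs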

no.	Target gene	viability hit class	caspase hit class	viability robust z-score	caspase robust z-score
1	RAC3	no change	no change	0.94	0.2
2	NMRAL1	no change	no change	-1.25	2.31
3	MCOLN3	no change	no change	-1.21	1.94
4	ANKRD1	no change	no change	0.24	-1.01
5	RUNX3	no change	no change	0.38	-0.76
6	YY1	no change	no change	0.21	0.95
7	ZSCAN31	no change	no change	0.86	-0.71
8	DNAJB6	no change	no change	0.68	0.07
9	LYZL2	no change	no change	0.38	-0.5
10	KRI1	no change	no change	0.78	-0.64
11	NOM1	no change	no change	-1.83	-0.62
12	NR1H4	no change	no change	0.25	1.98
13	PRPS2	no change	no change	0.22	-0.42
14	KLHDC3	no change (active)	CA2 (caspase activation)	0.52	5.96
15	ADRA1A	no change	no change	0.23	-0.23
16	UNC13C	no change	no change	0.46	-0.33
17	PHGDH	no change	no change	1.7	0.91
18	ERICH5	no change	no change	0.2	-0.51
19	MORN5	no change	no change	-0.36	-0.94
20	TTC17	no change	no change	-2.41	1.49
21	RPSA	no change	no change	-3.21	-1.36
22	ATL3	no change	no change	-0.7	-0.86
23	ID3	no change	no change	0.72	0.4

Laid out differently: entries from further up.
Target gene,viability hit class,caspase hit class,viability robust z-score,caspase robust z-score
NOM1,no change,no change,-1.83,-0.62
NR1H4,no change,no change,0.25,1.98
